Reference: the supplement of paper PMC10849652
This is one part of the list.

Sequences of proteins named here, by UniProt entry; tags and fusion partners are left off. A change or cut given only in a name is not applied to a line headed by its entry.
UniProt Q8N3P4: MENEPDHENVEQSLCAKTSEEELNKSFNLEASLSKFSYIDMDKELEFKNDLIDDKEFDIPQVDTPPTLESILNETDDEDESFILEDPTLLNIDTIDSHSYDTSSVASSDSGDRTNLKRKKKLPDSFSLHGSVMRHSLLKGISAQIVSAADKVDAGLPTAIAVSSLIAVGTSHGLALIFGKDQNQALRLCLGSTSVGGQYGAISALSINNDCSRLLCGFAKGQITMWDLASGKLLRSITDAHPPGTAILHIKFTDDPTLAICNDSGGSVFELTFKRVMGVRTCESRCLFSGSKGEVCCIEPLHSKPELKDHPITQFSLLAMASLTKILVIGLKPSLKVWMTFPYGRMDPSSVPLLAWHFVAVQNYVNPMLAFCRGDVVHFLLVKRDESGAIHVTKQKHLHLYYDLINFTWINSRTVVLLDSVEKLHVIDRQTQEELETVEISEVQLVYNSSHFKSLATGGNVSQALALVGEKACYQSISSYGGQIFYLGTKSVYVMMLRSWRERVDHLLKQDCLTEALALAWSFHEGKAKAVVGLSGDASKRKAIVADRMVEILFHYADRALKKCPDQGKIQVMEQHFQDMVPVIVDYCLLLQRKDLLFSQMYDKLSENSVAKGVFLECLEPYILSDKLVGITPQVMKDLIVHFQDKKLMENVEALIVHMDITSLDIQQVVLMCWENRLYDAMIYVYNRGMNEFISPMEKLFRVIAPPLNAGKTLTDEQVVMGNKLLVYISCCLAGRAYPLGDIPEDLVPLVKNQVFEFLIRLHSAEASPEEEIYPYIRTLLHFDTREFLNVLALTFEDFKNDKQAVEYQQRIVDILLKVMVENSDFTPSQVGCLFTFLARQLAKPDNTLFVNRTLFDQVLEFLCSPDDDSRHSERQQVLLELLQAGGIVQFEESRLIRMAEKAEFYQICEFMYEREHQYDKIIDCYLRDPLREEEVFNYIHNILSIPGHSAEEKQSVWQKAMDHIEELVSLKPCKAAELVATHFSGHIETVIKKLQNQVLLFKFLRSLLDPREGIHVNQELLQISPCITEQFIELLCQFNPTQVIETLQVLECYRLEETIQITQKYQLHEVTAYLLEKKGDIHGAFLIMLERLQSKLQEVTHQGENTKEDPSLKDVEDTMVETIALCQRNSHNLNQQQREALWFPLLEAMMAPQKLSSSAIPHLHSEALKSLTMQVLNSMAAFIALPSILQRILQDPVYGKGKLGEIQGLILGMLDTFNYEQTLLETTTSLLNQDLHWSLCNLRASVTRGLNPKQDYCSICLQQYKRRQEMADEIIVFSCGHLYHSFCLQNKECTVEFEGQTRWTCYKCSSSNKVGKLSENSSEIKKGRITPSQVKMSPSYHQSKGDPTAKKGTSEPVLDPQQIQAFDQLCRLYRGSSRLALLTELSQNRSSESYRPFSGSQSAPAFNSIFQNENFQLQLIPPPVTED
UniProt Q6UXN9, whole entry, looked up: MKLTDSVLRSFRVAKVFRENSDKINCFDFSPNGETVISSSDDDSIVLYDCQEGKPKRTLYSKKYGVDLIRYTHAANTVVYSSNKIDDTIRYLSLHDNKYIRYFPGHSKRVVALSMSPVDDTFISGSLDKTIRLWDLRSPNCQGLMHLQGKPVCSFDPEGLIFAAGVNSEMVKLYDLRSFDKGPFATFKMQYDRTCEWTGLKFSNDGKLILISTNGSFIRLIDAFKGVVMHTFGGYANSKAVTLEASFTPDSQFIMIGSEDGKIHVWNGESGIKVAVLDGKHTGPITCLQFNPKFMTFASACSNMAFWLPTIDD
UniProt Q9H270: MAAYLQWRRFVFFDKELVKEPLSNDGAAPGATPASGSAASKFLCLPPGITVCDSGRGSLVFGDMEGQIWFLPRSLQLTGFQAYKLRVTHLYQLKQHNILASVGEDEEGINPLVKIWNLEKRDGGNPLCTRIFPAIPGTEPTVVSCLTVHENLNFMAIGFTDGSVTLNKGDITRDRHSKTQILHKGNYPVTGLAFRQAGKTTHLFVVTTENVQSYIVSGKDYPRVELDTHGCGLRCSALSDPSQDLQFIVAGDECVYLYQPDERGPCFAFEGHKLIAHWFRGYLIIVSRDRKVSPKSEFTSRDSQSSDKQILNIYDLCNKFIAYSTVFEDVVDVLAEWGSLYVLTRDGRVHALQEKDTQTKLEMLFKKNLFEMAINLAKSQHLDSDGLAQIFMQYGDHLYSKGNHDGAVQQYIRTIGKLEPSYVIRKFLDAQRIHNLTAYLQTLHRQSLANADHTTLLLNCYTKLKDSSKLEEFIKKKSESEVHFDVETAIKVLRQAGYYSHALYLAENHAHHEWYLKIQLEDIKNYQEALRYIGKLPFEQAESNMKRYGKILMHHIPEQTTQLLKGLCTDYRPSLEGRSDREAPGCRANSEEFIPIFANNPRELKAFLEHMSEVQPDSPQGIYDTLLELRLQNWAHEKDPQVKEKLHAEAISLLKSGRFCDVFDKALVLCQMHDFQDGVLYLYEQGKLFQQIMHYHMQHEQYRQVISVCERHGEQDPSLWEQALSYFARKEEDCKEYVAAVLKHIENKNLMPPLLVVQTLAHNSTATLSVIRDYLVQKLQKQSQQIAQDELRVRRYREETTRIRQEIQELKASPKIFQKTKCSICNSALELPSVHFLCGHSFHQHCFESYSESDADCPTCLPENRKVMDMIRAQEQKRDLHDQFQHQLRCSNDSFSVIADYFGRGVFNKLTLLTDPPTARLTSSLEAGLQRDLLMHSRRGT
UniProt Q9H6Y2: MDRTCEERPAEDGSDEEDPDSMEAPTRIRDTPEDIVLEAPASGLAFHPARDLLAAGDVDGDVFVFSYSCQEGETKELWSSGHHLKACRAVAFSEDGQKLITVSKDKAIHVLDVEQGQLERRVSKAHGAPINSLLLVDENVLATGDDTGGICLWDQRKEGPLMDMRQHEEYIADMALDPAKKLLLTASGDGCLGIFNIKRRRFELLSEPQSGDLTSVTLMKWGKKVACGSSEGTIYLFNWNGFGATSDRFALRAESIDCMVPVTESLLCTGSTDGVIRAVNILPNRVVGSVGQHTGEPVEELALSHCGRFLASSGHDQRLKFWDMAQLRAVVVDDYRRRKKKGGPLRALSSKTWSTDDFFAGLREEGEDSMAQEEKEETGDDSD
UniProt Q9H9H4: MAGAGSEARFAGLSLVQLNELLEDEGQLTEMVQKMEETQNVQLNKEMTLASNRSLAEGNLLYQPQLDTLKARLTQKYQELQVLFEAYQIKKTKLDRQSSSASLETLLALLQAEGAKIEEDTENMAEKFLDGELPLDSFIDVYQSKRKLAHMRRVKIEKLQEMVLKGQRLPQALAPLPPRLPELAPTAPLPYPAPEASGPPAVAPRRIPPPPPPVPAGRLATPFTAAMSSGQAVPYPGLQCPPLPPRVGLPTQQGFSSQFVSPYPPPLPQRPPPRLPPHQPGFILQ
UniProt Q2M389: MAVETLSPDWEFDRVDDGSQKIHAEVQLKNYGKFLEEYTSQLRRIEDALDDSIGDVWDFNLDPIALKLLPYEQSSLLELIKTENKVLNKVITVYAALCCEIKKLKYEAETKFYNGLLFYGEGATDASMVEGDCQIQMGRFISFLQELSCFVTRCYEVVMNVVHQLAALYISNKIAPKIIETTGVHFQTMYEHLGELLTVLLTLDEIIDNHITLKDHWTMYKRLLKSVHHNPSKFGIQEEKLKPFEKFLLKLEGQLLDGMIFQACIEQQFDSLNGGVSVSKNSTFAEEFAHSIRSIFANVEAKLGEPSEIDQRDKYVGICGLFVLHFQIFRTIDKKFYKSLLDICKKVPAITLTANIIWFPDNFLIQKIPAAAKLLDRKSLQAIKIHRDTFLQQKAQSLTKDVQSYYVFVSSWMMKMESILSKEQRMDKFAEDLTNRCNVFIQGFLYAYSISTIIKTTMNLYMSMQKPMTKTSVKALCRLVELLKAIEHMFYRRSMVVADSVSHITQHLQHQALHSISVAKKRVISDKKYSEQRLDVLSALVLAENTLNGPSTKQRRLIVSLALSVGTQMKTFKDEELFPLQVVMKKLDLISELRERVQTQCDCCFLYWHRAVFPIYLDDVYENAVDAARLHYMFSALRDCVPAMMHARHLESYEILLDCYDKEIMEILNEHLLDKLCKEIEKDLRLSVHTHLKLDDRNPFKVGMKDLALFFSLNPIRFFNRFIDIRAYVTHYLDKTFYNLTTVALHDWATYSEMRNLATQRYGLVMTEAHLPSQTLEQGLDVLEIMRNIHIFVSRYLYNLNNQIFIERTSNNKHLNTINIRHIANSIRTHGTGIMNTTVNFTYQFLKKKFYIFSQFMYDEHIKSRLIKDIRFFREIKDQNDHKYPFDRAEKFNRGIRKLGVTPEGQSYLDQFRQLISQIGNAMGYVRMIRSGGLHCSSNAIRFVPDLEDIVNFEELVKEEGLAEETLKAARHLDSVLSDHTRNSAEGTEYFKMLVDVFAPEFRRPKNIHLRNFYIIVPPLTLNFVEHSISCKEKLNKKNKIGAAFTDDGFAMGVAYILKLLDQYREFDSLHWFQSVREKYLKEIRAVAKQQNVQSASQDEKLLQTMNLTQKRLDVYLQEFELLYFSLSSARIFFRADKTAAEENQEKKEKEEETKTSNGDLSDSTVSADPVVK
UniProt P23025: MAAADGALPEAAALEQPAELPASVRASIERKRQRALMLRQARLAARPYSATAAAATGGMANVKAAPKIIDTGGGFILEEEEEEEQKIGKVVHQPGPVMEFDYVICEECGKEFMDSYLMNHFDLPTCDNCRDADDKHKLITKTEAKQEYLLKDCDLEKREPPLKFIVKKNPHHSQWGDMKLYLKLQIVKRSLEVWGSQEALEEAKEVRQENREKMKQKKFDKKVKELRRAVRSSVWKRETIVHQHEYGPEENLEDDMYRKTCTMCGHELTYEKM
UniProt Q9BQA1, whole entry, looked up: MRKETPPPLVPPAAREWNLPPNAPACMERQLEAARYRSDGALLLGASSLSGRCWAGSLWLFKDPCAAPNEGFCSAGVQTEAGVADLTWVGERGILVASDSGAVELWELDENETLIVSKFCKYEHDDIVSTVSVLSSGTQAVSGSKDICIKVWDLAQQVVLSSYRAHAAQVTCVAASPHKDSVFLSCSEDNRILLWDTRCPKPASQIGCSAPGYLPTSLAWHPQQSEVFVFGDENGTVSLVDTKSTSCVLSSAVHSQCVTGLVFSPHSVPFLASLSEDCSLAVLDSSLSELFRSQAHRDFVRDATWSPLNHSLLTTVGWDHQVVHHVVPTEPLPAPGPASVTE
UniProt Q641Q2, whole entry, looked up: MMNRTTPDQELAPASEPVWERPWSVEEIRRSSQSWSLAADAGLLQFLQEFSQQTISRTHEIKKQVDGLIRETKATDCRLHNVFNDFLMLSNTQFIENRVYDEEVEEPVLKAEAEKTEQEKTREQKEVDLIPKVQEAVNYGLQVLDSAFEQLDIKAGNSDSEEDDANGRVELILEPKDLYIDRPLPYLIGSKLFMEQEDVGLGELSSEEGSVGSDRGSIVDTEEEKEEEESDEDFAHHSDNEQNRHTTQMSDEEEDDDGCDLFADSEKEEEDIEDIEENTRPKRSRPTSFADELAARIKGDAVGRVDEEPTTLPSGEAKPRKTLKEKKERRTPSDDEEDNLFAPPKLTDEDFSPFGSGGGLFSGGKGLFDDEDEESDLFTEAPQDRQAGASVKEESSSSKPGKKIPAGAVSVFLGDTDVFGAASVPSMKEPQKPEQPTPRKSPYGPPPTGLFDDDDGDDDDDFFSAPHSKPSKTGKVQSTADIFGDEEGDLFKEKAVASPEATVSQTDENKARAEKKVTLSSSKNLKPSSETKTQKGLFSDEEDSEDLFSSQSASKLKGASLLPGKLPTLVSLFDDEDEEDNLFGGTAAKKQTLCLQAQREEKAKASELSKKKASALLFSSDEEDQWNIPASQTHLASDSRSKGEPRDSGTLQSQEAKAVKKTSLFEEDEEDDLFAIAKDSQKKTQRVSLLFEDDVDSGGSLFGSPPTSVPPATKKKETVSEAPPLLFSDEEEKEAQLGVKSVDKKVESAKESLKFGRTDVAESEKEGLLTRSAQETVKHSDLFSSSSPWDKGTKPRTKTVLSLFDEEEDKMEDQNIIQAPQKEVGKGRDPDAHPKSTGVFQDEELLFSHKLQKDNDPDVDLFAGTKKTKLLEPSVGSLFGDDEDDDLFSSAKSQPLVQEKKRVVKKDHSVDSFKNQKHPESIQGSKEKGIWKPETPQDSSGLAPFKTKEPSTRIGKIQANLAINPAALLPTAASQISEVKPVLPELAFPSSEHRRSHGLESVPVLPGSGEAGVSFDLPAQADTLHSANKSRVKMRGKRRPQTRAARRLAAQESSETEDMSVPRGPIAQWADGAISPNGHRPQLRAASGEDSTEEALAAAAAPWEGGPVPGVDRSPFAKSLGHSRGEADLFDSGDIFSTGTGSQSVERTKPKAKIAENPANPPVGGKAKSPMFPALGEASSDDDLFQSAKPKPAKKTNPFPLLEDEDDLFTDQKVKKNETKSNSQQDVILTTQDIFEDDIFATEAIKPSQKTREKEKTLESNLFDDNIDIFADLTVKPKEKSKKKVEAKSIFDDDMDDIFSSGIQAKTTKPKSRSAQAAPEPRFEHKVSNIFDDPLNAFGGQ

Columns and labels:
Assay in all cases: log2 fold change, soluble protein after heating vs DMSO (PISA); higher = thermal stabilisation; K562 lysate, 10 uM; active = over 0.2 and 3.5 SD of the protein, either way, in both replicates (recomputed)
[1] = compound: CCCS(=O)(=O)Nc1ccc(F)c(C(=O)c2c[nH]c3ncc(-c4ccc(Cl)cc4)cc23)c1F [vemurafenib]
How it was run: (§1)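 K562 pellets were dounce-homogenised in PBS pH 7.4 containing 1 mM MgCl2, and the crude extract, at 1 mg/mL protein, was exposed to 10 μM compound for 30 min. Aliquots were heated for 3 min across 48°C-58°C, pooled, brought to 0.5% NP-40 at 4°C and spun at 21,000xg for 90 min, with the supernatant taken as soluble protein. TMTpro 16plex LC-MS/MS with equalised channel sums quantified that protein. Values are log-two fold changes in thermal stability relative to solvent controls, taken from duplicates.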

[2] = compound: CCCS(=O)(=O)Nc1ccc(F)c(C(=O)c2c[nH]c3ncc(Cl)cc23)c1F
How it was run: as §1

[3] = compound: CCN(CCCOc1ccc2c(Nc3cc(CC(=O)Nc4cccc(F)c4)[nH]n3)ncnc2c1)CCOP(=O)(O)O [barasertib]
How it was run: as §1

[4] = compound: CC[C@@H]1C(=O)N(C)c2cnc(Nc3ccc(C(=O)NC4CCN(C)CC4)cc3OC)nc2N1C1CCCC1
How it was run: as §1

[5] = compound: CC[C@@H]1C(=O)N(C)c2cnc(Nc3ccc(C(=O)N[C@H]4CC[C@H](N5CCN(CC6CC6)CC5)CC4)cc3OC)nc2N1C(C)C [volasertib]
How it was run: as §1

[6] = compound: CCn1c(C(=O)N(C2CC2)C2CC2)cc2c3c(ncn3C)c(Nc3cc(C)n(C)n3)nc21
How it was run: as §1

[7] = compound: CCn1cc(-c2ccnc3[nH]c(-c4cccc(CN(C)C)c4)cc23)c(-c2ccc(NC(=O)N(C)C)cc2)n1
How it was run: as §1

[8] = compound: CN1CCC(CNc2ccc3ncc(-c4cccc(OC(F)(F)F)c4)n3n2)CC1
How it was run: as §1

[9] = compound: CN1CCN(CCOc2cc(OC3CCOCC3)c3c(Nc4c(Cl)ccc5c4OCO5)ncnc3c2)CC1 [saracatinib]
How it was run: as §1

[10] = compound: CN1CCN(c2nc(C3=C(c4c[nH]c5ccccc45)C(=O)NC3=O)c3ccccc3n2)CC1 [sotrastaurin]
How it was run: as §1

[11] = compound: CN1CC[C@H](c2c(O)cc(O)c3c(=O)cc(-c4ccccc4Cl)oc23)[C@H](O)C1 [alvocidib]
How it was run: as §1

[12] = compound: CN1CCc2c(c3ccccc3n2Cc2ccc(C(=O)NO)cc2)C1 [Tubastatin A]
How it was run: as §1

[13] = compound: CNC(=O)C1=CC=CC=C1NC2=NC(=NC=C2Cl)NC3=C(C=C(C=C3)N4CCOCC4)OC
How it was run: as §1

[14] = compound: CNC(=O)c1ccc(Nc2ncc(C(F)(F)F)c(NCc3nccnc3N(C)S(C)(=O)=O)n2)cc1 [defactinib]
How it was run: as §1

[15] = compound: CNc1nc(-c2ccc3c(N)n[nH]c3c2)cc(N2C[C@@H](C(=O)NC3CCCCC3)CC[C@H]2C)n1
How it was run: as §1

[16] = compound: COC(=O)N[C@@H](C)CNc1nccc(-c2cn(C(C)C)nc2-c2cc(Cl)cc(NS(C)(=O)=O)c2F)n1 [encorafenib]
How it was run: as §1

[17] = compound: COC(=O)[C@H](CCSC)NC(=O)C1=C(C=C(C=C1)NC[C@H](CS)N)C2=CC=CC=C2
How it was run: as §1

[18] = compound: COc1cc(Nc2ncc3c(n2)-c2ccc(Cl)cc2C(c2c(F)cccc2OC)=NC3)ccc1C(=O)O [alisertib]
How it was run: as §1

[19] = compound: COc1cc2nc(-c3cc(F)ccc3O)nc(N[C@@H]3CNC[C@H]3C(C)(C)O)c2cc1OC
How it was run: as §1

[20] = compound: COc1cc2ncnc(Nc3ccc(F)c(Cl)c3)c2cc1OCCCN1CCOCC1 [gefitinib]
How it was run: as §1

Target	log2 fold change [1]	log2 fold change [2]	log2 fold change [3]	log2 fold change [4]	log2 fold change [5]	log2 fold change [6]	log2 fold change [7]	log2 fold change [8]	log2 fold change [9]	log2 fold change [10]	log2 fold change [11]	log2 fold change [12]	log2 fold change [13]	log2 fold change [14]	log2 fold change [15]	log2 fold change [16]	log2 fold change [17]	log2 fold change [18]	log2 fold change [19]	log2 fold change [20]
VPS8 (UniProt Q8N3P4)	inactive: 0.048	inactive: 0.031	inactive: 0.045	inactive: -0.033	inactive: -0.057	inactive: 0.093	inactive: -0.053	inactive: -0.007	inactive: -0.005	inactive: 0.021	inactive: 0	inactive: -0.123	inactive: 0.001	inactive: -0.001	inactive: 0.066	inactive: 0.023	inactive: -0.108	inactive: 0.02	inactive: 0.006	inactive: -0.037
WDR82 (UniProt Q6UXN9)	inactive: -0.007	inactive: 0.018	inactive: -0.006	inactive: -0.027	inactive: 0.002	inactive: -0.036	inactive: 0.004	inactive: 0.004	inactive: 0.012	inactive: -0.025	inactive: 0.014	inactive: 0.011	inactive: 0.019	inactive: -0.005	inactive: -0.025	inactive: -0.017	inactive: 0.008	inactive: 0.002	inactive: 0.017	inactive: -0.043
VPS11 (UniProt Q9H270)	inactive: -0.002	inactive: 0.034	inactive: 0.013	inactive: -0.033	inactive: -0.038	inactive: 0.015	inactive: -0.051	inactive: -0.007	inactive: 0.039	inactive: 0.019	inactive: 0.039	inactive: -0.113	inactive: 0.023	inactive: 0.022	inactive: -0.026	inactive: 0.016	inactive: -0.096	inactive: 0.002	inactive: 0.019	inactive: -0.007
WASHC5 (UniProt Q12768)	inactive: 0.031	inactive: 0.036	inactive: 0.007	inactive: 0.006	inactive: -0.035	inactive: -0.01	inactive: -0.057	inactive: 0.003	inactive: -0.007	inactive: 0.006	inactive: -0.041	inactive: -0.016	inactive: 0.017	inactive: 0.03	inactive: 0.006	inactive: 0.009	inactive: 0.069	inactive: 0.042	inactive: -0.005	inactive: 0.003
WDR55 (UniProt Q9H6Y2)	inactive: 0.029	inactive: -0.056	inactive: 0.046	inactive: -0.068	inactive: 0.035	inactive: 0.02	inactive: -0.026	inactive: 0.028	inactive: 0.007	inactive: 0.049	inactive: -0.005	inactive: -0.033	inactive: 0.011	inactive: -0.037	inactive: 0.018	inactive: -0.002	inactive: 0.074	inactive: 0.029	inactive: 0.028	inactive: 0.075
VPS13D (UniProt Q5THJ4)	inactive: -0.017	inactive: -0.077	inactive: 0.107	inactive: -0.035	inactive: -0.012	inactive: -0.082	inactive: 0.036	inactive: -0.1	inactive: 0.104	inactive: 0.038	inactive: 0.02	inactive: -0.011	inactive: 0.108	inactive: -0.009	inactive: 0.041	inactive: 0.09	inactive: -0.047	inactive: -0.006	inactive: 0.113	inactive: 0.079
VPS37B (UniProt Q9H9H4)	inactive: -0.001	inactive: 0.003	inactive: -0.012	inactive: 0.047	inactive: -0.011	inactive: 0.005	inactive: -0.018	inactive: 0.04	inactive: 0.048	inactive: 0.01	inactive: 0.025	inactive: -0.034	inactive: -0.047	inactive: 0.052	inactive: 0.024	inactive: -0.014	inactive: -0.053	inactive: -0.019	inactive: -0.003	inactive: -0.071
VPS4B (UniProt O75351)	inactive: 0.046	inactive: 0.009	inactive: 0.021	inactive: -0.033	inactive: -0.039	inactive: 0.027	inactive: 0.044	inactive: -0.081	inactive: 0.032	inactive: 0.034	inactive: 0.027	inactive: -0.099	inactive: -0.043	inactive: -0.002	inactive: 0.005	inactive: 0.04	inactive: 0.081	inactive: -0.017	inactive: -0.018	inactive: 0.021
WASHC3 (UniProt Q9Y3C0)	inactive: -0.009	inactive: -0.015	inactive: -0.059	inactive: 0.099	inactive: 0.033	inactive: -0.047	inactive: -0.003	inactive: -0.035	inactive: -0.007	inactive: 0.009	inactive: -0.025	inactive: 0.036	inactive: 0.015	inactive: 0.002	inactive: 0.059	inactive: 0.007	inactive: -0.019	inactive: 0.022	inactive: -0.028	inactive: -0.042
WASHC4 (UniProt Q2M389)	inactive: 0.01	inactive: 0.012	inactive: 0.033	inactive: -0.019	inactive: -0.033	inactive: 0.021	inactive: -0.066	inactive: -0.008	inactive: -0.008	inactive: -0.007	inactive: -0.005	inactive: 0	inactive: 0.013	inactive: 0.027	inactive: -0.03	inactive: -0.004	inactive: -0.012	inactive: 0.003	inactive: -0.018	inactive: -0.01
VPS37A (UniProt Q8NEZ2)	inactive: 0.032	inactive: 0.029	inactive: 0.074	inactive: 0.018	inactive: -0.027	inactive: 0.067	inactive: 0.008	inactive: -0.092	inactive: 0.044	inactive: 0	inactive: 0.028	inactive: -0.043	inactive: 0.002	inactive: 0.008	inactive: -0.057	inactive: 0.017	inactive: -0.017	inactive: -0.04	inactive: 0.016	inactive: 0.002
VPS33A (UniProt Q96AX1)	inactive: -0.012	inactive: 0.022	inactive: 0.037	inactive: 0.018	inactive: -0.042	inactive: 0.018	inactive: -0.041	inactive: -0.033	inactive: -0.001	inactive: 0.03	inactive: -0.01	inactive: -0.077	inactive: 0.033	inactive: 0.012	inactive: -0.011	inactive: 0.028	inactive: -0.044	inactive: 0.021	inactive: -0.022	inactive: 0.027
XPA (UniProt P23025)	inactive: -0.008	inactive: -0.057	inactive: 0.453	inactive: 0.118	inactive: 0.116	inactive: -0.151	inactive: 0.086	inactive: -0.095	inactive: 0.012	inactive: -0.07	inactive: -0.016	inactive: 0.043	inactive: 0.017	inactive: 0.031	inactive: 0.075	inactive: 0.006	inactive: -0.067	inactive: 0.01	inactive: -0.099	inactive: -0.07
WDR77 (UniProt Q9BQA1)	inactive: -0.095	inactive: -0.012	inactive: -0.045	inactive: -0.029	inactive: 0.004	inactive: 0.022	inactive: -0.004	inactive: 0.011	inactive: -0.032	inactive: 0.001	active: 0.242	inactive: 0.004	inactive: 0.002	inactive: -0.012	inactive: 0.012	inactive: 0.055	inactive: -0.07	inactive: -0.031	inactive: -0.024	inactive: -0.003
WASHC2A (UniProt Q641Q2)	inactive: 0.007	inactive: 0.015	inactive: -0.022	inactive: 0.066	inactive: -0.001	inactive: -0.011	inactive: -0.013	inactive: -0.008	inactive: 0.039	inactive: -0.007	inactive: -0.029	inactive: 0.007	inactive: -0.007	inactive: 0.019	inactive: 0.023	inactive: 0.031	inactive: -0.041	inactive: 0.018	inactive: 0.001	inactive: -0.016
WIZ isoform 3 (UniProt O95785)	inactive: 0.005	inactive: 0.021	inactive: 0.033	inactive: 0.037	inactive: 0.009	inactive: 0.013	inactive: -0.019	inactive: 0.06	inactive: -0.009	inactive: 0.013	inactive: -0.052	inactive: 0.005	inactive: 0.07	inactive: 0.001	inactive: 0.023	inactive: 0.053	inactive: -0.049	inactive: -0.002	inactive: 0.008	inactive: -0.038

Quoted from the listing:
For log2 fold change [4], WDR55 (UniProt Q9H6Y2) has the entry inactive: -0.068
For log2 fold change [18], VPS13D (UniProt Q5THJ4) has the entry inactive: -0.006
